Data on 2 compounds can be found in patent US12516056B2, “Compounds for inhibition of janus kinase 1” (MANKIND PHARMA LTD., priority 2019, dated 2026).

By UniProt entry, the sequences of proteins in these tests, tags left out.
UniProt P23458, whole entry: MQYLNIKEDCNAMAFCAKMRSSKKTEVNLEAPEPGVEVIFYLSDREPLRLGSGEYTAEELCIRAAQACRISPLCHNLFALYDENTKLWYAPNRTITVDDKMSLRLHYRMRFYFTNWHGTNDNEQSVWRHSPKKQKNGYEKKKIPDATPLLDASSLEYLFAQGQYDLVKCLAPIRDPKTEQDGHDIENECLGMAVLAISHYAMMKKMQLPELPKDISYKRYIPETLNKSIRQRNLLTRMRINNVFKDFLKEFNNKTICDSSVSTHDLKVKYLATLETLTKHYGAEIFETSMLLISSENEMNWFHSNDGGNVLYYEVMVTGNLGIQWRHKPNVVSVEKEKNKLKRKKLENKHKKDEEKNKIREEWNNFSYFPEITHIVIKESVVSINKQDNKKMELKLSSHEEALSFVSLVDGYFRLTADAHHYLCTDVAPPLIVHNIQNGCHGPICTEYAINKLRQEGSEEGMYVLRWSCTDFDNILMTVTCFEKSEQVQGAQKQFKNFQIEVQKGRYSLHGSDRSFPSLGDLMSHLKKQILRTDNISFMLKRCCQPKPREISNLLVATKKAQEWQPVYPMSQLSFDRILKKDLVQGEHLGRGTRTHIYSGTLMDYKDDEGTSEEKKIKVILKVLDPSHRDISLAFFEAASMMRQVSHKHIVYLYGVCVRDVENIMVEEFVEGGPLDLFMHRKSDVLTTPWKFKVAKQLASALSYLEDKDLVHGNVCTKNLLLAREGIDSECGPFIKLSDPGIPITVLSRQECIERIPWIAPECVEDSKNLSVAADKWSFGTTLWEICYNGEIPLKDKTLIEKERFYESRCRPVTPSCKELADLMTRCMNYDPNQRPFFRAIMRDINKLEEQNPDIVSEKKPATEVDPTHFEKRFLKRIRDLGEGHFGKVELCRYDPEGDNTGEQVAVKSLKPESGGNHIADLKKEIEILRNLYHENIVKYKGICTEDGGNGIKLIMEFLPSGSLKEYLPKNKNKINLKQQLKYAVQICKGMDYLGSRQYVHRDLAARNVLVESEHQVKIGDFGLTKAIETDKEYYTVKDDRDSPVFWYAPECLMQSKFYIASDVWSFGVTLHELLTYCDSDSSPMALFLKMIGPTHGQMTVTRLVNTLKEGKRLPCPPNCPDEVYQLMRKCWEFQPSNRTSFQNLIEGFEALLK
UniProt O60674, whole entry: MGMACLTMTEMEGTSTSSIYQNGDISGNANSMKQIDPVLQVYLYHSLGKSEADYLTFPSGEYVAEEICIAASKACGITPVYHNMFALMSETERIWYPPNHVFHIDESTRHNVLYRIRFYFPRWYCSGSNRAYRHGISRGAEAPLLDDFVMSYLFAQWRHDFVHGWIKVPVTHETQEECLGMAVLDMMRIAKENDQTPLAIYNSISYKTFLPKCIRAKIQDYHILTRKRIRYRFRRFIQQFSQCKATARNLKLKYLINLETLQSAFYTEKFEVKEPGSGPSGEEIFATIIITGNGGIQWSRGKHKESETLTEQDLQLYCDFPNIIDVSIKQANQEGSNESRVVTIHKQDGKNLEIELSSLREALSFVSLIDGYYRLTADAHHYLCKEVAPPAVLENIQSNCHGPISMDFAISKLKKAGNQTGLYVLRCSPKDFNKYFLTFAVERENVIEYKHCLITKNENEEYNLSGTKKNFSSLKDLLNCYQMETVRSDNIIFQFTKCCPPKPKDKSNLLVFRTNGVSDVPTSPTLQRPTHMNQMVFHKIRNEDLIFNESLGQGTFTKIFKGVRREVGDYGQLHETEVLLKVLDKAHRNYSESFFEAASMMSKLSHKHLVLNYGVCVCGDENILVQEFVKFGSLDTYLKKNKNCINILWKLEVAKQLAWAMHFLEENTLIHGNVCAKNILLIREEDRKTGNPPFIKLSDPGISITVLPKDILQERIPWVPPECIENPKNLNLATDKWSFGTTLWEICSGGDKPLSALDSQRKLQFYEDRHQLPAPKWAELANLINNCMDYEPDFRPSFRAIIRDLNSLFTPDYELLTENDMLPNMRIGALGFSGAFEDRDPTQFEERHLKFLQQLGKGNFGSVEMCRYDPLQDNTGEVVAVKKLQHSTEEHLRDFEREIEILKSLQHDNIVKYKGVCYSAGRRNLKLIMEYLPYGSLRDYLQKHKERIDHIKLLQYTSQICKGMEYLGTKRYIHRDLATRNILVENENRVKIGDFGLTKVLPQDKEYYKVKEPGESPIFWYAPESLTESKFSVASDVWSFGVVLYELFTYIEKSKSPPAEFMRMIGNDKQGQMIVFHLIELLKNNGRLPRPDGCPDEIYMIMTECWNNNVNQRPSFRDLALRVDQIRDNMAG
UniProt P52333, whole entry: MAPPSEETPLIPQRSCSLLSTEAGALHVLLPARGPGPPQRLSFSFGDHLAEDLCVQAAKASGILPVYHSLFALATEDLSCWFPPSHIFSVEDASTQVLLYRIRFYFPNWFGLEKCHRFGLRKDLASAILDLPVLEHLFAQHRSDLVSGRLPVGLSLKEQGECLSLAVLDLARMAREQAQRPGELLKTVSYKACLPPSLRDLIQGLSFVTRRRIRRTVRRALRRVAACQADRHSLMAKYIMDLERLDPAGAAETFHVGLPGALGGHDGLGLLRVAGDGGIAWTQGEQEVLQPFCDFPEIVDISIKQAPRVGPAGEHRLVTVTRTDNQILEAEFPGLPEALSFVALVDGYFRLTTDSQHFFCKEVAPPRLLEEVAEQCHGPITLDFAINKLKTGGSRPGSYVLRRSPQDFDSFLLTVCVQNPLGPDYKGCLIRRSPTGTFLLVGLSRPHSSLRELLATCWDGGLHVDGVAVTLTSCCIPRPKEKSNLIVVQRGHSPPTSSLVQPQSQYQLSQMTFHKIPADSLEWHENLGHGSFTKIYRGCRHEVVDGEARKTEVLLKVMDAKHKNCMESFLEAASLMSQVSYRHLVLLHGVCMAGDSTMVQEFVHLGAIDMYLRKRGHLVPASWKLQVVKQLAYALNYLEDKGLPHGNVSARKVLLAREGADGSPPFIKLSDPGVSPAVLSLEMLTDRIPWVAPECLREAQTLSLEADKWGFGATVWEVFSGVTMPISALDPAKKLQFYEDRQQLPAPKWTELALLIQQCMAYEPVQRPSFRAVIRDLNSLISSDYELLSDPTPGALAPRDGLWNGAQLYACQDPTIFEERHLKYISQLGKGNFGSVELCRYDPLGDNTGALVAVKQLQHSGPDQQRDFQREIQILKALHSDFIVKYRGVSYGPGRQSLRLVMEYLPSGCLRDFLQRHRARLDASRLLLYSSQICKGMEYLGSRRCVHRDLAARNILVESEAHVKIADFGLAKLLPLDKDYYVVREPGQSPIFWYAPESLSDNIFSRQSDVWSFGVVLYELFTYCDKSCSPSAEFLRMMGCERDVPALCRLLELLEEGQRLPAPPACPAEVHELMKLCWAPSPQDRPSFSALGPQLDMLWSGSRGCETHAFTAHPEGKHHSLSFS
UniProt P29597, whole entry: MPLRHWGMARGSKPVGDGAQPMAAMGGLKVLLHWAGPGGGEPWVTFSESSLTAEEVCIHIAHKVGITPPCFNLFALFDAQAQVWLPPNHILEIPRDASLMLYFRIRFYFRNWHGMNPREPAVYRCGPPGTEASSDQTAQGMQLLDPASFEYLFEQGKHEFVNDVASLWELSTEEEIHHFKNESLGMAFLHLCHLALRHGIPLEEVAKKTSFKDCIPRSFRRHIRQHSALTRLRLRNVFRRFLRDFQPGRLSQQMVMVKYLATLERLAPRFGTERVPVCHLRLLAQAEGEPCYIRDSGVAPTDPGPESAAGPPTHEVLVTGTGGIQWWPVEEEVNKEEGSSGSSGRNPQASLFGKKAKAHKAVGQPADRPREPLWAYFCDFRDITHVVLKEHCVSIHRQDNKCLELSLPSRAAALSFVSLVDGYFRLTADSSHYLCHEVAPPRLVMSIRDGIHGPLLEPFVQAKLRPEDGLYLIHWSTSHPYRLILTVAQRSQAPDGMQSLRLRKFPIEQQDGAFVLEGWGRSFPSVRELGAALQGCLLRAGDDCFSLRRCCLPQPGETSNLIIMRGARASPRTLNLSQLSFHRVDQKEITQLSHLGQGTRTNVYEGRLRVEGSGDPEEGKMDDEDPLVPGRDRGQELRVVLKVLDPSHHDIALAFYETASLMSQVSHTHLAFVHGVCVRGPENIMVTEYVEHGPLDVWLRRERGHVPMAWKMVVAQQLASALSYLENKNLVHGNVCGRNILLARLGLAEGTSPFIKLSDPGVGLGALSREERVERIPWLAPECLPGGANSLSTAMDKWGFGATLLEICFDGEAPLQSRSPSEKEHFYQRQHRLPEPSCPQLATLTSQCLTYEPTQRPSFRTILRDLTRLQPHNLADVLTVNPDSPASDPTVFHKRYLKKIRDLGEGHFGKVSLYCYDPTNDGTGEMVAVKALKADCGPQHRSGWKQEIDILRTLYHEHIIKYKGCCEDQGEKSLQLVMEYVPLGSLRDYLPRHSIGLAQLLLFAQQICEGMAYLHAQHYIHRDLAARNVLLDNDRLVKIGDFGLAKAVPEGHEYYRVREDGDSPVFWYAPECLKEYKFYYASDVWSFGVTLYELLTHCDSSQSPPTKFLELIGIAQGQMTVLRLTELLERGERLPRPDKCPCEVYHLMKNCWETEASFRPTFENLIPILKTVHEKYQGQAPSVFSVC

One assay addresses Recombinant JAK1 (Homo sapiens, UniProt P23458). Put plainly: JAK biochemical assay (LANCE Ultra TR-FRET), JAK1. The conditions noted are these: read-out: Biochemical Assay (μM) JAK1.
The target in a further assay is Recombinant JAK2 (Homo sapiens, UniProt O60674). In words: JAK biochemical assay (LANCE Ultra TR-FRET), JAK2. To be noted: read-out: Biochemical Assay (μM) JAK2.
The next assay concerns the target Recombinant JAK3 (Homo sapiens, UniProt P52333). In words: JAK biochemical assay (LANCE Ultra TR-FRET), JAK3. The conditions noted are these: read-out: Biochemical Assay (μM) JAK3. (Time-resolved FRET reads energy transfer from a long-lived donor to a nearby acceptor.)
A further assay deals with Recombinant TYK2 (Homo sapiens, UniProt P29597). In words: JAK biochemical assay (LANCE Ultra TR-FRET), TYK2. To be noted: read-out: Biochemical Assay (μM) TYK2.
Assay [1] relates to STAT3 phosphorylation by IL-6 in TF-1 cells. Put plainly: JAK cellular assay: STAT3 phosphorylation by IL-6 in TF-1 cells (HTRF). To be noted: read-out: Cell Based Assay (μM) TF-1/IL-6/pSTAT3, IL-6 30 ng/ml.
In assay [2] the test system is STAT5 phosphorylation by GMCSF in TF-1 cells. Put plainly: JAK cellular assay: STAT5 phosphorylation by GMCSF in TF-1 cells (HTRF). To be noted: read-out: Cell Based Assay (μM) TF-1/GMCSF/pSTAT5, GMCSF 5 ng/ml.
In assay [3] the test system is STAT5 phosphorylation by IL-2 in HT-2 cells. In words: STAT5 phosphorylation by IL-2 in HT-2 cells (HTRF). To be noted: read-out: Cell Based Assay (μM) HT-2/IL-2/pSTAT5, IL-2 50 U/ml.

Structures were worked out from names or drawings and are uncertain. Bounds are passed on as bounds.

Turning to `O=C(NCC(F)(F)F)C(O)c1ccc(-n2cc(-c3ccnc4[nH]cnc34)cn2)nc1` (centres unmarked), the IC50 at Recombinant JAK1 was more than 0.5 µM; at Recombinant JAK2 it was more than 1 µM; at Recombinant JAK3 it was more than 0.5 µM; on Recombinant TYK2, more than 1 µM.

As for `O=C(NC1CC1)NC(c1ccc(-n2cc(-c3ccnc4[nH]cnc34)cn2)nc1)C(F)(F)F` (centres unmarked) [Example 1178, 1-(1-(6-(4-(3H-imidazo[4,5-b]pyridin-7-yl)-1H-Pyrazol-1-yl)pyridin-3-yl)-2,2,2-trifluoroethyl)-3-cyclopropylurea], the IC50 at Recombinant JAK1 was less than 0.1 µM; on Recombinant JAK2, less than 0.1 µM; on Recombinant JAK3, less than 0.1 µM; on Recombinant TYK2, less than 0.1 µM; in assay [1], more than 0.1 µM; in assay [2], more than 0.1 µM. Moreover, the IC50 in assay [3] is more than 0.1 µM.
